The target of assay [1] is T1, murine MAEA (macrophage erythroblast attacher) (mouse) (UniProt Q4VC33).
T1 sequence (looked up): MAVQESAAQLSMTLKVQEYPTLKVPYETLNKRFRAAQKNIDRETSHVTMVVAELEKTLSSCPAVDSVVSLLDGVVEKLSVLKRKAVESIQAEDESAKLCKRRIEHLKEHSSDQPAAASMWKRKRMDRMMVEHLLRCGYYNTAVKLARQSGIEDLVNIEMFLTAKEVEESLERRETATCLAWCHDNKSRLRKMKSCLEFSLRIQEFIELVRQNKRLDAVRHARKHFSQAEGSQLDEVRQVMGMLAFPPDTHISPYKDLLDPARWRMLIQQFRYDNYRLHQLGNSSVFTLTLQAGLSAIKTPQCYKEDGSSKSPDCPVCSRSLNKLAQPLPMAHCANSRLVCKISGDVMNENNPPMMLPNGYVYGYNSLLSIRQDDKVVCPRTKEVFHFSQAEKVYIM
The assay is described as follows: flow cytometry on mouse bone marrow macrophages, MAEA-deleted cells as control.

Assay [2] concerns the target T1, murine MAEA (macrophage erythroblast attacher) (mouse). The assay can be described thus: flow cytometry on mouse bone marrow cells, MAEA-deleted cells as control.

These are yes or no findings as the source states them, for the method shown. Some results given as binding are weak or reduced against the parent protein; the word gives no strength.

B1: Anti-MAEA mAb 92.25 (antibody, V domains shown)
VH: EVQLQQFGAELVRPGASVKISCKASGYTFTDYNMDWVKQSHAKRLEWIGDINPNYDSPTYSQKFKGRATLTVDNSSSTAYMELRSLTSEDTAVYYCARGHYYGYGYFDVWGAGTTVTVSS
VL: DIEMTQSQKFMSTAVGDRVSVTCKASQNVGTNVAWYQQKPGKSPKVLIYSASYRYSGVPDRFRGSRSGTDFTLTISNVQSEDLAEYFCQQYNTYPWTFGGGTKLEIK
In the case of B1, the binding result in assay [1] and in assay [2] was “binds” each time.

The values above are taken from patent US20210095045A1.
